{"source": "patent US6632418B2", "about": "“Radioligands and their use for identifying potassium channel modulators” (Abbott Laboratories, priority 2001, dated 2003)", "test_system": "ATP-sensitive potassium channel", "experiment": "Comparison of the profile of the novel radioligand with [^3H]P1075 in membrane preparations", "type": "binding", "data": [{"compound": "O=C1COCC2=C1C(c1ccc(F)c([125I])c1)C1=C(CCS1(=O)=O)N2", "note": "(stereo not shown) [Example 1, 9-(4-fluoro-3-[I^125]iodophenyl)-2,3,5,9-tetrahydro-4H-pyrano[3,4-b]thieno[2,3-e]pyridin-8(7H)-one 1,1-dioxide]", "values": [{"measurement": "specific bound", "setting": "membrane preparations", "result": "75-90%"}, {"measurement": "Ligand Specifically Bound", "setting": "radioligand comparison table", "result": "75%-90%"}, {"measurement": "Specific Signal", "setting": "radioligand comparison table, radioligand concentration 5 nM ([^3H]P1075) or 0.5-1 nM ([^125I]A-312110)", "result": 6000, "unit": "cpm"}, {"measurement": "specific signal relative to [^3H]P1075", "setting": "typical specific signal", "result": 20, "unit": "fold"}]}]}
